PubChem BioAssay AID504850 (National Center for Advancing Translational Sciences (NCATS), 2011)
The whole screen tested about 2,300 compounds, of which about 1,200 (52%) were called active. So high a share suggests a set chosen from earlier hits. Inconclusive results, whose numbers are uncertain, are shown with a selection of clear calls. Calls come from the whole dose curve; as a rule, active = well fitted inhibition curve with a large enough effect; inconclusive = small, poorly fitted or top-dose-only effect, or effect the other way; inactive = no such curve, though single readings can be large or run the other way. Where the call is inconclusive, the potency comes from a doubtful curve fit.
% is set by controls: 0 for no effect and ±100 for the full control effect; potency is the fitted concentration of half-maximal effect.

Assay: Confirmation screen for delayed death inhibitors of the malarial parasite plastid, 48 hour incubation; note: nearly all actives have a fitted effect of over 65% in size
Conditions: P. falciparum-infected erythrocytes, luciferase growth; series mostly up to 28.7 µM; activity change, negative = inhibition: at the top concentration
Method in brief: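 Single-generation (48 h, 37 C) exposure of integrated firefly luciferase-reporter P. falciparum in red cells, 0.1% parasitemia at 2% hematocrit, Albumax-supplemented RPMI. Falling luciferase signal marks parasite growth inhibition.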
In the case of `Cc1ccc(C(=O)/C=C/C(=O)O)cc1`, the Potency is reported as inconclusive: 15.8 µM [inhibitor, single point].
In the case of `COc1ccc(C#Cc2ccc3c(=O)c4ccccc4n(C)c3c2)cc1`, the Potency is reported as active: 10 µM.
In the case of `CN(C)c1ccc(S(=O)(=O)N2CCCCC2)cc1NC(=O)C1=NN(c2ccccc2)C(=O)CC1`, the Potency is reported as active: 8.91 µM.
In the case of `O=C(CCCN1C(=O)/C(=C\c2ccco2)SC1=S)Nc1ccc2ccccc2c1`, the “activity change, negative = inhibition” value is reported as inactive: -5.51%.
In the case of `COc1cc2c(cc1OC)-c1cc(N3CCc4ccccc43)nc(=O)n1CC2`, the Potency is reported as inconclusive: 6.31 µM [inhibitor, partial curve].
For `O=C(CN(c1ccc2c(c1)OCCO2)S(=O)(=O)c1ccccc1)NCc1ccc(Cl)cc1`, the Potency was active: 7.94 µM.
In the case of `CCCCNC(=O)c1onc(CSc2cc(C)ccc2C)c1C(=O)O`, the “activity change, negative = inhibition” value is reported as inactive: -13.3%.
With `O=C(CCNC(=O)c1ccc(Br)cc1)NC1CCCc2ccccc21` (configuration not stated) the Potency was inconclusive: 14.1 µM [inhibitor, single point].
With `O=C(OC[C@@H]1O[C@@](O)(COC(=O)c2cccnc2)[C@H](OC(=O)c2cccnc2)[C@H]1OC(=O)c1cccnc1)c1cccnc1` the Potency was inconclusive: 7.08 µM [inhibitor, full curve].
With `COc1cc(-c2nnc(NC(=O)CCS(=O)(=O)c3ccccc3)o2)cc(OC)c1OC` the Potency was inconclusive: 15.8 µM [inhibitor, single point].
In the case of `Cc1c(NC(=O)C(C)Sc2nccn2C)c(=O)n(-c2ccccc2)n1C` (configuration not stated), the “activity change, negative = inhibition” value is reported as inactive: -5.16%.
In the case of `O=C(Oc1nsnc1N1CCCCC1)N1CCOCC1`, the Potency is reported as active: 12.6 µM.
In the case of `COc1ccc(-c2cc(CNC(=O)CCl)on2)cc1`, the Potency is reported as active: 1.58 µM.
In the case of `COc1ccc(/C=C2\N=C(SC)N(c3ccccc3OC)C2=O)cc1`, the Potency is reported as active: 14.1 µM.
For `CCOc1nc(NCCN2CCOCC2)nc(Nc2ccc(C)cc2)n1`, the Potency was inconclusive: 14.1 µM [inhibitor, single point].
For `CCOc1ccccc1NC(=O)c1ccccc1-c1ccccc1`, the Potency was inconclusive: 12.6 µM [inhibitor, partial curve, poor fit].
In the case of `Cc1ccc(S(=O)(=O)N2CCCCC2C)cc1[N+](=O)[O-]` (configuration not stated), the “activity change, negative = inhibition” value is reported as inactive: -20.8%.
For `CCNc1nc(NCC)n2c(SCC(=O)Nc3ccccc3F)nnc2n1`, the Potency was active: 12.6 µM.
With `Cc1ccc(C(CC(=O)c2ccco2)SCCO)cc1` (configuration not stated) the Potency was inconclusive: 5.62 µM [inhibitor, partial curve, poor fit].
For `COc1ccccc1Nc1nnc(SCc2cc(=O)n3ccsc3n2)s1`, the Potency was active: 12.6 µM.
With `COC(=O)c1ccc(CSc2ccccc2C)o1` the “activity change, negative = inhibition” value was inactive: -5.45%.
For `O=C(CCNC(=O)c1ccc(Cl)cc1)NC1CCCc2ccccc21` (configuration not stated), the Potency was inconclusive: 15.8 µM [inhibitor, single point].
For `COc1ccc(NC(=O)CSc2ccc(-c3ccco3)nn2)c(OC)c1`, the Potency was inconclusive: 12.6 µM [inhibitor, partial curve, poor fit].
For `CCc1ccc(OCCNC(=O)c2ccco2)cc1`, the Potency was inconclusive: 14.1 µM [inhibitor, single point].
For `N#CC1=C(N)Oc2n[nH]c(-c3cccnc3)c2C1c1ccc([N+](=O)[O-])o1` (configuration not stated), the Potency was inconclusive: 15.8 µM [inhibitor, single point].
For `O=C(Nc1ccsc1C(=O)O)c1cccc(C(F)(F)F)c1`, the Potency was inconclusive: 15.8 µM [inhibitor, single point].
In the case of `COc1ccccc1N1CCN(CCC(=O)Nc2ccc(F)cc2)CC1`, the Potency is reported as inconclusive: 17.8 µM [inhibitor, single point].
For `O=C1C=C(c2ccccc2)OC2(CCCC2)O1`, the Potency was inconclusive: 17.8 µM [inhibitor, single point].
With `CCOc1ccccc1CNC(=O)c1cc2oc3ccccc3c2n1C` the Potency was inconclusive: 15.8 µM [inhibitor, single point].
In the case of `NC(=O)CC(NC(=O)c1ccccc1)c1ccc(N2CCN(c3ccccc3)CC2)c([N+](=O)[O-])c1` (configuration not stated), the Potency is reported as inconclusive: 15.8 µM [inhibitor, single point].
For `COc1ccc(NC(=O)c2c(-c3c(Cl)cccc3Cl)noc2C)c(OC)c1`, the Potency was active: 3.16 µM.
For `COC(=O)c1cn(C)c2ccc(S(=O)(=O)N3CCCC3)cc2c1=O`, the “activity change, negative = inhibition” value was inactive: -9.9%.
With `COc1ccc(OC)c(/C=C/C(=O)c2ccc3c(c2)OCO3)c1` the Potency was inconclusive: 17.8 µM [inhibitor, partial curve, poor fit].
In the case of `O=C(COc1ccccc1)Nc1nc2c(s1)CCCC2`, the Potency is reported as inconclusive: 7.08 µM [activator, partial curve].
For `Cc1c(NC(=O)c2ccc(Cl)c(S(=O)(=O)N3CCCCC3)c2)c(=O)n(-c2ccccc2)n1C`, the Potency was inconclusive: 8.91 µM [inhibitor, partial curve].
In the case of `CN(C(=O)c1cc([N+](=O)[O-])ccc1NCc1cccnc1)c1ccccc1`, the Potency is reported as inconclusive: 11.2 µM [inhibitor, partial curve, poor fit].
With `Cn1c(=O)[nH]c(=O)c2c1nc(NCc1ccccc1)n2Cc1ccc(F)cc1` the Potency was inconclusive: 10 µM [inhibitor, partial curve, poor fit].
With `C[C@@H]1c2cccc(O)c2C(O)=C2C(=O)[C@@]3(O)C(O)=C(C(N)=O)C(=O)[C@@H](N(C)C)[C@@H]3[C@@H](O)[C@@H]21` the Potency was active: 4.47 µM.
In the case of `COc1cc(C(=O)Nc2ccc(S(=O)(=O)Nc3cc(C)on3)cc2)cc(OC)c1OC`, the “activity change, negative = inhibition” value is reported as inactive: 3.18%.
With `Cc1cc(C)cc(-n2ncc3c2CCCC3NC(=O)c2cc(C)[nH]n2)c1` (configuration not stated) the Potency was inconclusive: 14.1 µM [inhibitor, single point].
With `O=C(c1cc(COc2ccc(F)cc2Cl)on1)N1CCN(C2CCCCC2)C(=O)C1` the Potency was inconclusive: 15.8 µM [inhibitor, single point].
With `CO[C@H]1[C@H](O[C@H]2O[C@@H](C)[C@@H](O[C@@H]3C[C@](C)(O)[C@H](O)[C@H](C)O3)[C@@H](N(C)C)[C@@H]2O)[C@@H](CC=O)C[C@@H](C)[C@@H](O[C@H]2CC[C@H](N(C)C)[C@H](C)O2)/C=C\C=C/C[C@@H](C)OC(=O)C[C@H]1O` the Potency was inconclusive: 6.31 µM [inhibitor, single point].
